Measured values from article PMC5007559.
Results are given in words; binding and its absence hold for the method and conditions named. In cells and extracts the contact can be indirect. Some results given as binding are weak or reduced against the parent protein; the word gives no strength. For part of these data: Sequences can lack the tags named with a protein.

Sequences of proteins named here, by UniProt entry; tags and fusion partners are left off. A change or cut given only in a name is not applied to a line headed by its entry.
UniProt O95292: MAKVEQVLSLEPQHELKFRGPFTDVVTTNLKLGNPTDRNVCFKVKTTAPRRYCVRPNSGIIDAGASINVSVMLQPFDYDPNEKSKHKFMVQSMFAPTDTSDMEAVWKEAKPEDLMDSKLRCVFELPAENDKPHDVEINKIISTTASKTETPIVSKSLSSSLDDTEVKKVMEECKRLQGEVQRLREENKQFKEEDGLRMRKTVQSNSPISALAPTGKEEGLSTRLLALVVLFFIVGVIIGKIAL
UniProt P35637: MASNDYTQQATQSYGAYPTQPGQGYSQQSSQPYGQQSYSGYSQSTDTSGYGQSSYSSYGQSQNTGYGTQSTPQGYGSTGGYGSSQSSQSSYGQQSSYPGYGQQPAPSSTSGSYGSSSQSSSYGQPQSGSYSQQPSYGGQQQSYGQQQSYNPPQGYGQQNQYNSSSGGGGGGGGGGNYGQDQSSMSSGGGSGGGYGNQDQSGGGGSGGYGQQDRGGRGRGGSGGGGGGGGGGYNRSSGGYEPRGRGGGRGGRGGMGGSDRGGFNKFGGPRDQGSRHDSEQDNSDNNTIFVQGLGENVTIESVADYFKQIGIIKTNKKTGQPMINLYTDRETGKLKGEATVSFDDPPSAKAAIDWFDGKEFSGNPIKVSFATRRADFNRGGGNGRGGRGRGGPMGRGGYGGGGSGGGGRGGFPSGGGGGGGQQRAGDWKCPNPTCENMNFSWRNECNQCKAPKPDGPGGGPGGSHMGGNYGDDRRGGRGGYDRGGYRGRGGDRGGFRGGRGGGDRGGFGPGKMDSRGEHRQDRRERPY
UniProt Q9QY76: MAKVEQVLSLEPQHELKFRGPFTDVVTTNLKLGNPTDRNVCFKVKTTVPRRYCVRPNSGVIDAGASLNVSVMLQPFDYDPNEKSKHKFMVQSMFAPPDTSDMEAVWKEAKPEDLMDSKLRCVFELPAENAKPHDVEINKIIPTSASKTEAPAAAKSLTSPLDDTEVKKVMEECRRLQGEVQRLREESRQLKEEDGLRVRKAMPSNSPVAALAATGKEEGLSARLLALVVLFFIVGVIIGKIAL

Assays:
myc-tagged VAPB = myc-tagged VAPB (UniProt O95292); experiment: co-IP; HEK293 cells transfected with myc-VAPB and HA-FUS (wild type, R521C or R518K); VAPB immunoprecipitated via the myc tag, FUS probed via the HA tag; 50 mM Tris-citrate pH 7.4, 150 mM NaCl, 1% Triton X-100, 5 mM EGTA, 5 mM EDTA, 4 C
[1] = biological target: T1, haemagglutinin (HA)-tagged PTPIP51 (UniProt Q96TC7); experiment: co-IP; cells transfected with HA-PTPIP51 and control vector, EGFP-FUS, EGFP-FUSR521C, EGFP-FUSR518K or EGFP-FUSdeltaC; PTPIP51 immunoprecipitated by the HA tag, endogenous VAPB detected by immunoblot; 50 mM Tris-citrate pH 7.4, 150 mM NaCl, 1% Triton X-100, 5 mM EGTA, 5 mM EDTA, 4 C
T1 sequence: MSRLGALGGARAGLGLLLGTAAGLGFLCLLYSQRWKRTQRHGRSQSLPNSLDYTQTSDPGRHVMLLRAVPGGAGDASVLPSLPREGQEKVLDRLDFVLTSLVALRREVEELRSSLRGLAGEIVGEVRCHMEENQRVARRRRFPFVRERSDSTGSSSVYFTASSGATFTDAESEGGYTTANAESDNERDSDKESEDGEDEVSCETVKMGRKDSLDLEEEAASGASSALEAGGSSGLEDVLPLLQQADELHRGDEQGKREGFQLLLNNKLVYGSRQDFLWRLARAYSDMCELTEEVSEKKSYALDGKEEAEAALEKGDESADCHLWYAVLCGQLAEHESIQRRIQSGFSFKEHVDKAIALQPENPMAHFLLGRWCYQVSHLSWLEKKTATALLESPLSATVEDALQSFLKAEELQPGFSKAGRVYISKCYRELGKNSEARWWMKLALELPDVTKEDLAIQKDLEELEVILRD

[2] = biological target: T2, protein tyrosine phosphatase interacting protein 51 (PTPIP51), endogenous in NSC34 cells and mouse spinal cord motor neurons (mouse (endogenous in NSC34 cells and mouse spinal cord)) (UniProt Q3UJU9); experiment: proximity ligation; in situ, paraformaldehyde-fixed NSC34 cells probed with rabbit anti-VAPB and rat anti-PTPIP51 antibodies, Duolink In Situ Orange kit; cells untransfected, transfected with EGFP control or EGFP-FUS (wild type, R521C, R518K), or treated with vehicle, 1 uM AR-A014418 or 100 nM CT99021 for 16 h
T2 sequence: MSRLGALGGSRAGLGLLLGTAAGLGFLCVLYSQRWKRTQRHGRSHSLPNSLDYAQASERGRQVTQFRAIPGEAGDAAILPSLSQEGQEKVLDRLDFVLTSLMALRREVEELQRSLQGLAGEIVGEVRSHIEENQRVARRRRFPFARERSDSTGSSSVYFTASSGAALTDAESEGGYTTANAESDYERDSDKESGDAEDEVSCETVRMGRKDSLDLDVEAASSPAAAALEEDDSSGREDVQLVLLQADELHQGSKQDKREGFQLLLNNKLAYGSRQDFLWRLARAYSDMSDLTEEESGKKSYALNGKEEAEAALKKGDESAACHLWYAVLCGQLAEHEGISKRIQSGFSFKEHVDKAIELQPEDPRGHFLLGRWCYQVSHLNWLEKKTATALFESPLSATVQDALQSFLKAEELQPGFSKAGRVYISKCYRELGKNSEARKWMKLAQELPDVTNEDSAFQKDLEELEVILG

[3] = biological target: T2, protein tyrosine phosphatase interacting protein 51 (PTPIP51), endogenous in NSC34 cells and mouse spinal cord motor neurons (mouse (endogenous in NSC34 cells and mouse spinal cord)); experiment: proximity ligation; in situ, 30-um sections of paraformaldehyde-fixed mouse spinal cord (FUS transgenic and non-transgenic littermates), lumbar motor neurons, rabbit anti-VAPB and rat anti-PTPIP51 antibodies, Duolink In Situ Brightfield kit

Substance | binding (myc-tagged VAPB) | further results
HA-tagged familial ALS mutant FUS R518K (from UniProt P35637 1-526) | no binding | 
HA-tagged familial ALS mutant FUS R521C (from UniProt P35637 1-526) | no binding | 
HA-tagged wild-type FUS (fused in sarcoma) (from UniProt P35637 1-526) | no binding | 
endogenous VAPB of the transfected cells used for immunoprecipitation of HA-PTPIP51 (from UniProt Q9QY76 1-243) |  | binding [1]: binds
vesicle-associated membrane protein-associated protein B (VAPB), endogenous in NSC34 cells and mouse spinal cord motor neurons (from UniProt Q9QY76 1-243) |  | binding [2]: binds; binding [3]: binds
